Data published in patent US8309790B2, “Animal models for demyelination disorders” (University of Chicago, priority 2005, dated 2012).

Tested on: mice with EAE
Experiment: EAE, CNS delivery of INF-γ at the recovery stage (doxycycline withdrawn at PID7)
Assay type: in vivo
Description: Double transgenic mice that allow for temporally regulated delivery of INF-γ to the CNS (Lin et al., J Neurosci 24:10074-10083 (2004)) were used to assess the role of INF-γ in the pathogenesis of EAE. GFAP/tTA; TRE/IFN-γ double transgenic mice, as described in Example 1 were used to determine the effect of INF-γ on the demyelination caused by EAE. All mice were fed doxycycline from the day of conception to repress the expression of INF-γ, and were immunized with myelin oligodendrocyte protein (MOG35-55) to induce EAE. At day 7 postimmunization (PID7), doxycycline was withdrawn from the experimental group (PID7 DOX−).
The level of INF-γ was determined in the control (DOX+) and the PID7 DOX− mice using an ELISA immunoassay as described in Example 1, and the severity of the disease was assessed as a function of a clinical score. Clinical severity scores were recorded daily according to a 0-5 point scale, where 0=healthy, 1=flaccid tail, 2=ataxia and/or paresis of hind limbs, 3=paralysis of hind limbs and/or paresis of forelimbs, 4=tetraparalysis, and 5=moribund or dead.
The spinal cord from DOX+ and DOX− animals with EAE was immunostained for MBP, and the remyelination of axons was evaluated. The number of oligodendrocytes was determined in the spine from DOX+ and DOX− mice as the number of CC1 positive cells. Axonal damage was evaluated by immunostaining of non-phosphorylated neurofilament-H. Antibodies to non-phosphorylated neurofilament-H were SMI32 diluted to 1:1000 and obtained from Stemberger Monoclonals.
INF-γ is known to induce MHC antigens and activate macrophages and T lymphocytes. The inflammatory effect of INF-γ was studied in the CNS during remyelination by determining the infiltration of T cells and macrophages, and measuring the expression of MHC-1, TNF-a, IL-2, IL-12 and IL-17. Immunohistochemistry was performed in tissues from the DOX+ and DOX− mice with EAE as described in Example 4. Experimental procedures were followed as described in the examples above.

interferon-γ [IFN-γ]
level of INF-γ (ELISA) (DOX− mice, PID50): 40.24 pg/mg
level of INF-γ (ELISA) (both DOX+ and DOX− mice, peak of the disease PID17): 60 pg/mg
level of INF-γ (ELISA) (control DOX+ mice, PID50): 6.22 pg/mg
